In patent US20240108734A1, “METHODS FOR TREATING AND AMELIORATING CANCER” (The Regents of the University of California, priority 2021, published 2024):
At least one compound was matched to its structure with a doubt left.

Legend:
ADAR1p150 = experiment: Western blot of sAML CD34+ cells treated with JAK2 inhibitors; assay type: cell-based, human; settings: sAML stem cells (pt. 255 CD34+); 1, 10 and 100 nM; in the presence of inflammatory cytokines
phospho-STAT3 = experiment: as above; assay type: cell-based, human; settings: sAML stem cells (pt. 255 CD34+); 1, 10 and 100 nM; in the presence of inflammatory cytokines

In the case of `N#CC[C@H](C1CCCC1)n1cc(-c2ncnc3[nH]ccc23)cn1` [ruxolitinib], the ADAR1p150 levels (ADAR1p150) is reported as “reduced” and the phospho-STAT3 levels (phospho-STAT3) is reported as “reduced”.
